# Laboratory results reported in the supplement of paper PMC12067093, “Discovery and optimisation of a covalent ligand for TRIM25 and its application to targeted protein ubiquitination” (Chemical Science, 2025).
# Sequences of proteins named here, by UniProt entry; tags and fusion partners are left off. A change or cut given only in a name is not applied to a line headed by its entry.
# UniProt P50453: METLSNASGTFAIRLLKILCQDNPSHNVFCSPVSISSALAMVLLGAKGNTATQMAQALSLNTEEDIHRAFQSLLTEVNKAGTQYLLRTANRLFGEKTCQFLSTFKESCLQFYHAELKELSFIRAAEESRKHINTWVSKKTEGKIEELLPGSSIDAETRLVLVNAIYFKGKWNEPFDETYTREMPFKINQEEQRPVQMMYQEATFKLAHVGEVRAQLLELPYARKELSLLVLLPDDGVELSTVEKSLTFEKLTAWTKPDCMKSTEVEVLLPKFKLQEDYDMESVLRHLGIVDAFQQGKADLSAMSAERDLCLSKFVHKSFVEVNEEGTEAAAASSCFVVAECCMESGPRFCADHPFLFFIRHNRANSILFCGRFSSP
# UniProt Q15393: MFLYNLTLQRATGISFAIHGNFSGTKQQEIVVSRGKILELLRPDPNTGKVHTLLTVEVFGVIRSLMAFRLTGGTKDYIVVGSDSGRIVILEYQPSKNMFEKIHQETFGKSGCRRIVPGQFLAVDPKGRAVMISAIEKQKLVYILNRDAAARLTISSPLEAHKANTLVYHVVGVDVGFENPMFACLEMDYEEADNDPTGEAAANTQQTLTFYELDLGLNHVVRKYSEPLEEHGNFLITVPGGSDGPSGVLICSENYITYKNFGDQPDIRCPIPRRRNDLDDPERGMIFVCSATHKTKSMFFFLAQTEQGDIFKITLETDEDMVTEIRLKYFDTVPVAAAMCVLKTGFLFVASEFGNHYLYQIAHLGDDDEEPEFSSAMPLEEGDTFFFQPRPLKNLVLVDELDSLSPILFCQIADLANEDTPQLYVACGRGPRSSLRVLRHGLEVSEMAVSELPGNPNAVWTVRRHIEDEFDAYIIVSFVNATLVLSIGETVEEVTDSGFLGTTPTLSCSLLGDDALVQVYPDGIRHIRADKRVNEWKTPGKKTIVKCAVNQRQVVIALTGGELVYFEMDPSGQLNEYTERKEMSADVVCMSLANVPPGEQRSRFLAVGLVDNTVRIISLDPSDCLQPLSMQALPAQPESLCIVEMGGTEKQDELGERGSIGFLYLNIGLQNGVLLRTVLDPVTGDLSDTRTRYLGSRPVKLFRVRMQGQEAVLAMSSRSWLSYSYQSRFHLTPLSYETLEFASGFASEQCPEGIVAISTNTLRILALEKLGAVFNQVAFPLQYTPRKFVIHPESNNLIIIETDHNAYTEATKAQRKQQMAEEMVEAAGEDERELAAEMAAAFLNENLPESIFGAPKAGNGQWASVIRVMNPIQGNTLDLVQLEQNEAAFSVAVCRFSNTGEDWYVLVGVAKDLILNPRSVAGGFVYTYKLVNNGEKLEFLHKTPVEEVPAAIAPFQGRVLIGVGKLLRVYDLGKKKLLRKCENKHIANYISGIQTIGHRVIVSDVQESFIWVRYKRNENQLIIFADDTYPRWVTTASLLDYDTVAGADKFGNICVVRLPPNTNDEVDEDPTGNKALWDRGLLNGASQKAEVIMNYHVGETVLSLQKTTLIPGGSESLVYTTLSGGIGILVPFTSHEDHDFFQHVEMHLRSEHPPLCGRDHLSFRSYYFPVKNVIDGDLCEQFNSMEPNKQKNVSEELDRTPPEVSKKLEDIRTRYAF
# UniProt P63208, whole entry, looked up: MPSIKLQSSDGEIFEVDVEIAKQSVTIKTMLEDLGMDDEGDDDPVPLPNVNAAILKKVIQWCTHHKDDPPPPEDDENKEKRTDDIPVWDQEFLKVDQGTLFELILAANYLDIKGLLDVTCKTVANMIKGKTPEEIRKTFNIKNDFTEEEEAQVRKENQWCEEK
# UniProt P08697: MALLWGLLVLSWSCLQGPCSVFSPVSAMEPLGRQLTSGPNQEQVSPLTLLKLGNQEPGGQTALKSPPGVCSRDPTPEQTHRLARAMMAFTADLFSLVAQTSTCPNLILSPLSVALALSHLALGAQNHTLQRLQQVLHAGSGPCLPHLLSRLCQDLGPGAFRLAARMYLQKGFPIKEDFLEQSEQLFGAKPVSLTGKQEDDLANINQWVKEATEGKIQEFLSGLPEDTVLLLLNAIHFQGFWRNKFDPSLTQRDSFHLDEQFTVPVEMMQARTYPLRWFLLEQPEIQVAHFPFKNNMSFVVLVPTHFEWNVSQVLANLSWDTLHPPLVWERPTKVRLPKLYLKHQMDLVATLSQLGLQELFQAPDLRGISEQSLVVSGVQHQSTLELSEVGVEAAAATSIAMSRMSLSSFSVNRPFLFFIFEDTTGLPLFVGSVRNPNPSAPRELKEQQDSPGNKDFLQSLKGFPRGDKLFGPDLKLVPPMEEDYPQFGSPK
# UniProt Q9Y2K2: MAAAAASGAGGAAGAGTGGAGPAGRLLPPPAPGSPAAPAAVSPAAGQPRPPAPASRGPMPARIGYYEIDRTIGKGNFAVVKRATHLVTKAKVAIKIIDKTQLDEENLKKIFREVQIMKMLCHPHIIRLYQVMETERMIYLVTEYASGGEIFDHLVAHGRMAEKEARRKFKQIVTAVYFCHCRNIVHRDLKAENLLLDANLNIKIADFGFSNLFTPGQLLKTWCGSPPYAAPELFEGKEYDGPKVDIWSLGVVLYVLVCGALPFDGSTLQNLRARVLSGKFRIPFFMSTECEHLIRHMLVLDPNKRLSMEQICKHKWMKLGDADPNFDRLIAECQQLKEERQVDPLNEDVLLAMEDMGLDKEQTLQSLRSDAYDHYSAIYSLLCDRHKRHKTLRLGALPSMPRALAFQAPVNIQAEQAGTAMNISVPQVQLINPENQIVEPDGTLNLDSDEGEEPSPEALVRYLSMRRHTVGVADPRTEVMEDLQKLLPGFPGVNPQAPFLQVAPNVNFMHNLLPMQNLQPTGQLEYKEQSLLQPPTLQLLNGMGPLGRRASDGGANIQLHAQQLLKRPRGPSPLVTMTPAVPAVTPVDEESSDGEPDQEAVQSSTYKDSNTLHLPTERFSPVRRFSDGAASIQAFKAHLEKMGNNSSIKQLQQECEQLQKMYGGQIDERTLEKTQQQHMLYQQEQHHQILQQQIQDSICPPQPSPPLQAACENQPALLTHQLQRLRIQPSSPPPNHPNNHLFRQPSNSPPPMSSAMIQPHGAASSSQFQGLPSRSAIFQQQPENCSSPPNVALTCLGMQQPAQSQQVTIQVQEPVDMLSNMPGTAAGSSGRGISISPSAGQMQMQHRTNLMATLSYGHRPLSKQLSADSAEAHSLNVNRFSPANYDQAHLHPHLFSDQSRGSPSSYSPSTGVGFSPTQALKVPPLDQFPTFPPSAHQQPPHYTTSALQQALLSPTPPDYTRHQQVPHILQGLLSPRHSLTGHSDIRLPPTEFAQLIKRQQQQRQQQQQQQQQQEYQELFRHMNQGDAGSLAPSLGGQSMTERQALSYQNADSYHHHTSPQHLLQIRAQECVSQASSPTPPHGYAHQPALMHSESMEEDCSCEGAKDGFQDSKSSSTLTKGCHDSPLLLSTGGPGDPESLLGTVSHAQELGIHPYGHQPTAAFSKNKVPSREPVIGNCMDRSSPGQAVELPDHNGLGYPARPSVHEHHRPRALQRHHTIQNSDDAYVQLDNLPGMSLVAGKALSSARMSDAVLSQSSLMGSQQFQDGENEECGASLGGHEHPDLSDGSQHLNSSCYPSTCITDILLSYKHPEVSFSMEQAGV
# UniProt Q9UBX3: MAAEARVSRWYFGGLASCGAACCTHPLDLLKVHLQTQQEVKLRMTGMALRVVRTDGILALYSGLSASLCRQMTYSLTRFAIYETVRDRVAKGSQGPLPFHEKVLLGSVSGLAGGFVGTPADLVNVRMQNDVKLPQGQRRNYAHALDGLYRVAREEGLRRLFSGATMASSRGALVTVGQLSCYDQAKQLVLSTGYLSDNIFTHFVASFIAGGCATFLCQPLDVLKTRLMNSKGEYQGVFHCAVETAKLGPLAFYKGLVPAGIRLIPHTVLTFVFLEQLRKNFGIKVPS
# UniProt Q15477, whole entry, looked up: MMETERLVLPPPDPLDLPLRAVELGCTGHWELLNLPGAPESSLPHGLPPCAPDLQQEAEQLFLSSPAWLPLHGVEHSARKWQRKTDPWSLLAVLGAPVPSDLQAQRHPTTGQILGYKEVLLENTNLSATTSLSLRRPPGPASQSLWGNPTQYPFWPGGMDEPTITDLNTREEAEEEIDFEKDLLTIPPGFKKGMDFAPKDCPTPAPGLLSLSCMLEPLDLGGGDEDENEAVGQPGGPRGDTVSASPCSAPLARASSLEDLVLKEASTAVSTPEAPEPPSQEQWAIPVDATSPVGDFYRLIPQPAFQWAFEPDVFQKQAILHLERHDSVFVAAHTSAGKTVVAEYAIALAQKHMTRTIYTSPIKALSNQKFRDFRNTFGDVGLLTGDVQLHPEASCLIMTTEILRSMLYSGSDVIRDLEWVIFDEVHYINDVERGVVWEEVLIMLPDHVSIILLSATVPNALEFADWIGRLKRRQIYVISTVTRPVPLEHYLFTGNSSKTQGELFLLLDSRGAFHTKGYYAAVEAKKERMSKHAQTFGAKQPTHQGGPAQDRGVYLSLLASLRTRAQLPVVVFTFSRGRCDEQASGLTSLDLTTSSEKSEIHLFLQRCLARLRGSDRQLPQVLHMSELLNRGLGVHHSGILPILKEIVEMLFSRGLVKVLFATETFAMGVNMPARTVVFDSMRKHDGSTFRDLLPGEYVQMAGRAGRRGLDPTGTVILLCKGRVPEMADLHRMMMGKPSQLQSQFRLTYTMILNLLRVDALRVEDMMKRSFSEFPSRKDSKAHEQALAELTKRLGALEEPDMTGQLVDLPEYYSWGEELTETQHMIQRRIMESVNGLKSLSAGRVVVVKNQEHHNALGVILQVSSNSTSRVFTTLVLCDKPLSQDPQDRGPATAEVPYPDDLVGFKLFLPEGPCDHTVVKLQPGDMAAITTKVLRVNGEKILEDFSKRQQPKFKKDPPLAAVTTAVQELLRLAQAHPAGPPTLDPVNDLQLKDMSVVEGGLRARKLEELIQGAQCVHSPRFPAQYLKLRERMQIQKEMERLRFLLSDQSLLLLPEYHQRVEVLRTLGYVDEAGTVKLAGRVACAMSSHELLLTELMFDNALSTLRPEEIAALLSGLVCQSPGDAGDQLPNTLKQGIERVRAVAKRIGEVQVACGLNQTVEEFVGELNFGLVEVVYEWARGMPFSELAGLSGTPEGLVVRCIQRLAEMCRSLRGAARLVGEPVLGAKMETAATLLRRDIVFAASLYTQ
# UniProt Q15758: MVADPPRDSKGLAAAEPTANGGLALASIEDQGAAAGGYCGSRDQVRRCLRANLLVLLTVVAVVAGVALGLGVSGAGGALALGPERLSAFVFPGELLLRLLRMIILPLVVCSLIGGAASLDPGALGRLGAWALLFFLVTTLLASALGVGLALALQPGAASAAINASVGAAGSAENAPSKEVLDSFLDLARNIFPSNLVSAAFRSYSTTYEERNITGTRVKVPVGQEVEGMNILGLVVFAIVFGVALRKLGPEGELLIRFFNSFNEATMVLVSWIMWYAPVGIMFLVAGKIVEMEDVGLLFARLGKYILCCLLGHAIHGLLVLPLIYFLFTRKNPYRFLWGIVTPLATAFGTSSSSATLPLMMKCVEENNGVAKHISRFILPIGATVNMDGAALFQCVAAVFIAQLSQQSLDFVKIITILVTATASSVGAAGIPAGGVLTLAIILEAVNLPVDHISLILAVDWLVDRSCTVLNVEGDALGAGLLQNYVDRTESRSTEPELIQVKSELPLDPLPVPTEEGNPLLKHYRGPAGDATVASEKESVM
# UniProt Q5VUG0: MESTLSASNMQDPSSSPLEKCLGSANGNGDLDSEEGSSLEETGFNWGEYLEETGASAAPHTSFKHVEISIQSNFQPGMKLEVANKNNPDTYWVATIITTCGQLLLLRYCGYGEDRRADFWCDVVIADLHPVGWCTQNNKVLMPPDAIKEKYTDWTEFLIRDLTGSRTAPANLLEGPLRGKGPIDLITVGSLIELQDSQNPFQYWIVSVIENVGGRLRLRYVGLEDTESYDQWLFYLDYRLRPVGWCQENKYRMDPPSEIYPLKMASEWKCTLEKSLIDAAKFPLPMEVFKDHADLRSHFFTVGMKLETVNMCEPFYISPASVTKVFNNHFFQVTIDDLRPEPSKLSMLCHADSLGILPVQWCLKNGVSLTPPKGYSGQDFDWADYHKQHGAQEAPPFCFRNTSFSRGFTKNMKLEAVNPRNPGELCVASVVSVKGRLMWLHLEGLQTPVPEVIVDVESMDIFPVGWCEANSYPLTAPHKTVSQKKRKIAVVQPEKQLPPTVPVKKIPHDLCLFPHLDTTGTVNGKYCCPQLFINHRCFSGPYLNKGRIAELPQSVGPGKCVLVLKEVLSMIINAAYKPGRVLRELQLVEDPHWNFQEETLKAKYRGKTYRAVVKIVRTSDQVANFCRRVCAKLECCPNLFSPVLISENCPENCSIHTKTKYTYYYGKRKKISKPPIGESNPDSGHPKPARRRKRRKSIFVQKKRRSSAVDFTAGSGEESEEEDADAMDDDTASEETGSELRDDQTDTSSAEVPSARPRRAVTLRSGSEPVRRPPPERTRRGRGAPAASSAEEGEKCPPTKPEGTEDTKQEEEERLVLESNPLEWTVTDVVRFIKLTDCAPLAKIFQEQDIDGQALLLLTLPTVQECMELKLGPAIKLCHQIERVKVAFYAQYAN
# This is one part of the list.
# Compound: CC1Cc2ccccc2N1C(=O)C1CCCN(C1)C(=O)CCl (mixture of isomers) [TRIM25 ligand 11 (diastereomer mixture)]
# Assay: probe-labelled cysteine peptide fold change vs DMSO (competition) (log2 fold change); higher = less target engagement (more negative = stronger competition)
# Conditions: THP-1, incubation time: 4 h
# 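Further: competitive chemoproteomic profiling in live THP-1 cells with an iodoacetamide desthiobiotin (IA-DTB) probe, comparing probe-labelled peptide intensities in compound-treated cells against DMSO-treated controls.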
Target,probe-labelled cysteine peptide fold change (10 µM),probe-labelled cysteine peptide fold change (50 µM)
SERPINB9_P50453_259_LTAWTKPDCMK (UniProt P50453),0.00664,0.00481
SF3B3_Q15393_289_GMIFVCSATHK (UniProt Q15393),0.255,0.0632
SKP1_P63208_62_KVIQWCTHHK (UniProt P63208),-0.104,0.072
SERPINF2_P08697_152_LCQDLGPGAFR (UniProt P08697),0.591,0.7
SERPINB8_P50452_364+368_TNCILFCGR (UniProt P50452),-0.0321,0.229
SIK3_Q9Y2K2_655_QLQQECEQLQK (UniProt Q9Y2K2),0.0351,0.0789
SLC25A10_Q9UBX3_181_GALVTVGQLSCYDQAK (UniProt Q9UBX3),0.0626,0.168
SKA3_Q8IX90_215_MDDFECVTPK (UniProt Q8IX90),-0.0875,-0.3
SKIV2L_Q15477_247_GDTVSASPCSAPLAR (UniProt Q15477),-0.0294,-0.219
SHC1_P29353_574_FESVSHLISYHMDNHLPIISAGSELCLQQPVER (UniProt P29353),0.226,-0.0831
SIK3_Q9Y2K2_290_IPFFMSTECEHLIR (UniProt Q9Y2K2),-0.0975,-0.0384
SLC1A5_Q15758_363_CVEENNGVAK (UniProt Q15758),-0.142,-0.0912
SFMBT2_Q5VUG0_511_KIPHDLCLFPHLDTTGTVNGK (UniProt Q5VUG0),-0.251,-0.114
SETD2_Q9BYW2_1241_TELSFSSSCEIPHVDGLHSSEELR (UniProt Q9BYW2),0.0856,-0.416

# Two neighbouring records already listed, for reference:
Target,probe-labelled cysteine peptide fold change (10 µM),probe-labelled cysteine peptide fold change (50 µM)
SF3B3_Q15393_289_GMIFVCSATHK (UniProt Q15393),0.255,0.0632
SKP1_P63208_62_KVIQWCTHHK (UniProt P63208),-0.104,0.072
